The target of test [1] is T1, native KCC2 (K+-Cl- cotransporter KCC2) (mouse (endogenous in brain)) (UniProt Q91V14).
T1 sequence: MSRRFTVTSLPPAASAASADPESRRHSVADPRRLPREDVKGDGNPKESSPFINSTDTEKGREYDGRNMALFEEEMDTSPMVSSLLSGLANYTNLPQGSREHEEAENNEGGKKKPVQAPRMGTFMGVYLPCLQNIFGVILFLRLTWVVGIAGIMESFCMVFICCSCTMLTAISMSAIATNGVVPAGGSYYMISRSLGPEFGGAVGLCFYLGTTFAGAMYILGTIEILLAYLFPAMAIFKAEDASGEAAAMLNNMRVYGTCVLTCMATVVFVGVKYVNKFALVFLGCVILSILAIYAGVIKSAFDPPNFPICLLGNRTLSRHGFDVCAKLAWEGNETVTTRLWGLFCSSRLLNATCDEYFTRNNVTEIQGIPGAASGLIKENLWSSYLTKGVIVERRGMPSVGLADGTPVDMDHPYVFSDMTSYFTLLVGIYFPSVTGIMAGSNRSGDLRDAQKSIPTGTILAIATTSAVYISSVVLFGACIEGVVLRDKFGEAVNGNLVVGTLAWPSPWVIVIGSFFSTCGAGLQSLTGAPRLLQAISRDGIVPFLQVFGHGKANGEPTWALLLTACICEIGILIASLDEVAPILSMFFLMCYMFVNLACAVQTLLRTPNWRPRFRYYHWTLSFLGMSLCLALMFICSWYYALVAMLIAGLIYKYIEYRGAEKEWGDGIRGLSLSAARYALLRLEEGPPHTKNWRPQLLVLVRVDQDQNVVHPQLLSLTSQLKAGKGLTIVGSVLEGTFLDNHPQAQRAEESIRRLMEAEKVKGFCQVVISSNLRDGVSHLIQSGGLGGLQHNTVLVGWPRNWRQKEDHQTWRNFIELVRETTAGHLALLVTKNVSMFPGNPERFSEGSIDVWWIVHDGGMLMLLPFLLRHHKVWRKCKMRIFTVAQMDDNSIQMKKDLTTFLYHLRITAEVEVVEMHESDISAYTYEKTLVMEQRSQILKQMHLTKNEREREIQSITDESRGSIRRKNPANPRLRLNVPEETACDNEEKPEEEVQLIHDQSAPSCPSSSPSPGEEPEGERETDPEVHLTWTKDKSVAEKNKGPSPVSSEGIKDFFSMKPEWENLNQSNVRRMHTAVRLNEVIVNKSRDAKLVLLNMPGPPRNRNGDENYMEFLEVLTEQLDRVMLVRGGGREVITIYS
As to the kind of experiment: affinity purification with mass spectrometry; C-terminal pan-KCC2 antibody (5 µg) on beads; CHAPS-solubilised membrane fractions (1 mg) of P50 mouse brain; parallel IgG control.

Amino acid sequences for entries named in this document (tags omitted).
UniProt Q6Q477: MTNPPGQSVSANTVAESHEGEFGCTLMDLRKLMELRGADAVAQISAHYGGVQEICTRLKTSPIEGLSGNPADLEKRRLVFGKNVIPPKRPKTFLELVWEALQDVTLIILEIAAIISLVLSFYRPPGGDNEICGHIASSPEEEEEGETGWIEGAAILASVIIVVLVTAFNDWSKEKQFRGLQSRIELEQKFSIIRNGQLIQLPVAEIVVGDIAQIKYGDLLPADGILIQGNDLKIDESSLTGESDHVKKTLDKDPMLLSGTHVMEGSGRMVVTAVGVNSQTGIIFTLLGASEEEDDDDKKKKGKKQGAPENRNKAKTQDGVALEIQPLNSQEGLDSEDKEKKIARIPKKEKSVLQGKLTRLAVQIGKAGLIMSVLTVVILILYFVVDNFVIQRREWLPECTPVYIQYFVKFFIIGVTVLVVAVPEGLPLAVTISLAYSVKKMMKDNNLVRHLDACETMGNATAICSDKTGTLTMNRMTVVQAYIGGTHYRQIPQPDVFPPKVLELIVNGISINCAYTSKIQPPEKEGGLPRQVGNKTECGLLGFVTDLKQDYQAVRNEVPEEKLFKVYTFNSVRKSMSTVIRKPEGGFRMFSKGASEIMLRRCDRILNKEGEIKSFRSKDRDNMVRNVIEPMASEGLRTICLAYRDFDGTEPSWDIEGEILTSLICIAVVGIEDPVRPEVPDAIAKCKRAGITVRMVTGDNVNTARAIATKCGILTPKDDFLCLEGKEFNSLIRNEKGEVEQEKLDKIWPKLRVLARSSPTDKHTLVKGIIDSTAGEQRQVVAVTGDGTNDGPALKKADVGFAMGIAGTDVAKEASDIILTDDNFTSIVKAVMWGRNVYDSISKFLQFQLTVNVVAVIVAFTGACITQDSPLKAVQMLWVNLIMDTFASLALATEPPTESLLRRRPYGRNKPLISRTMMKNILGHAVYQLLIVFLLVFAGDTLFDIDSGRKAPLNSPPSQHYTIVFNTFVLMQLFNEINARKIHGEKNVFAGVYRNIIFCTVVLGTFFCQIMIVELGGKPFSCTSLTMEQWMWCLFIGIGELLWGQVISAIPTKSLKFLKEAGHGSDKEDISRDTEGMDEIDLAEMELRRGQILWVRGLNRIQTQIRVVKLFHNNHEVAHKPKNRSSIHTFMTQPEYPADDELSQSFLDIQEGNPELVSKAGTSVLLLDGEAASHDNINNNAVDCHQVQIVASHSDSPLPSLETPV

Test [2] concerns the target T1, native KCC2 (K+-Cl- cotransporter KCC2) (mouse (endogenous in brain)). As to the kind of experiment: affinity purification with mass spectrometry; anti-KCC2 antibodies (C-terminal, N-terminal KCC2b, pS940) cross-linked with DMP to GammaBind IgG beads; C12E9-solubilised whole-brain membrane fractions of P5 and P50 mice; 4 hr, 4°C; parallel IgG/IgY controls.

No constants are given. Whether binding was seen depends on the method and setting. In cells and extracts the contact can be indirect. A yes stands for co-enrichment or nearness to the bait. Other partners may have been found.

For ATP2B4 (from UniProt Q6Q477 1-1205), in test [1], the binding entry is “binds”.

B1: KCNAB2 (protein, UniProt P62482 1-367)
chain: MYPESTTGSPARLSLRQTGSPGMIYSTRYGSPKRQLQFYRNLGKSGLRVSCLGLGTWVTFGGQITDEMAEHLMTLAYDNGINLFDTAEVYAAGKAEVVLGNIIKKKGWRRSSLVITTKIFWGGKAETERGLSRKHIIEGLKASLERLQLEYVDVVFANRPDPNTPMEETVRAMTHVINQGMAMYWGTSRWSSMEIMEAYSVARQFNLIPPICEQAEYHMFQREKVEVQLPELFHKIGVGAMTWSPLACGIVSGKYDSGIPPYSRASLKGYQWLKDKILSEEGRRQQAKLKELQAIAERLGCTLPQLAIAWCLRNEGVSSVLLGASNAEQLMENIGAIQVLPKLSSSIVHEIDSILGNKPYSKKDYRS
As for B1, the binding entry in test [2] was “binds”.

B2: SLC44A1 (protein, UniProt Q6X893 1-653)
chain: MGCCSSASAAQSSKREWKPLEDRSCTDIPWLLLFVLFCIGMGFICGFSVATGAAARLVSGYDSYGNICGQRNAKLEAIPNSGLDHTHRKYVFFLDPCNLDLINRKIKSIALCVAACPRQELKTLSDVQKFAEINGSALCSYNIKPSEYTLTSKSSGFCPKLPVPASAPIPFFHRCAPVNISCYAKFAEALITFVSDNSVLHRLISGVMTSKEIILGLCLLSLVLSMILMVIIRYISRVLVWILTVLVILGSLGGTGVLWWLYAKQRRSPKEAVIPEQLQIAEDNLRALLIYAISATVFTVILFLIMLVMRKRVALTIALFHVAGKVFIHLPLLVFQPFWTFFALVLFWAYWIMTLLFLGTTGSAVQNEQGFVEYKISGPLQYMWWYHVVGLIWISEFILACQQMTVAGAVVTYYFTRDKRNLPFTPILASVNRLIRYHLGTVAKGSFIITLVKIPRMVLMYIHSQLKGKENACARCMLKSCICCLWCLEKCLSYLNQNAYTATAINSTNFCTSAKDAFVILVENALRVAAINTVGDFMLFLGKVLIVCSTGLAGIMLLNYQQDYTVWVLPLIIVCLFAFLVAHCFLSIYEMVVDVLFLCFAIDTKYNDGSPGREFYMDKVLMEFVENSRKAMKEAGKGGAADARELKPMLRKR
As to B2, the binding result in test [1] was “binds”.

B3: SRCIN1 (protein, UniProt Q9QWI6 1-1250)
chain: MQPWQCLRRFALAWWERTAEGRARSPREEVGPRDPGGRGEPDPERSSPPMLSADDAEYPREYRTLGGGGGGGSGGRRFSNVGLVHTSERRHTVIAAQSLEALSGLQKADADRKRDAFMDHLKSKYPQHALALRGQQDRMREQVGGWTVDPVCLLSSLCSHLHGDSTPSGAGQPAQQPNYWSFKTRSSRHTQGAQPGLADQAAKLSYASAESLETMSEAELPLGFSRMNRFRQSLPLSRSASQTKLRSPGVLFLQFGEETRRVHITHEVSSLDTLHALIAHMFPQKLTMGMLKSPNTAILIKDEARNVFYELEDVRDIQDRSIIKIYRKEPLYAAFPGSHLTNGDLRREMVYASRESSPTRRLNNLSPASHLASSSPPPGLPSGLPSGLPSGSPSRSRLSYAGGRPPSYAGSPVHHAAERLGGAPTGQGVSPSPSAILERRDVKPDEDLAGKAGGMVLVKGEGLYADPYGLLHEGRLSLAAAAETHSHTRARAACTSGVPCALSAPTPLPRCSPTWRTRCTRRALAALYGDGYGFRLPPSSPQKLADVSAPSGGPPPPHSPYSGPPSRGSPVRQSFRKDSGSSSVFAESPGGKARSTGSASTAGAPPSELFPGPGERSLVGFGPPVPAKDTETRERMEAMEKQIASLTGLVQSALLRGSEPETPSEKVEGSNGAATPSAPVCGSGSKSSGATPVSGPPPPSASSTPAGQPTAVSRLQMQLHLRGLQNSASDLRGQLQQLRNVQLQNQESVRALLKPTEADVSMRVSEAARRQEDPLQRQRTLVEEERLRYLNDEELITQQLNDLEKSVEKIQRDVAHNHRLMPGPELEEKALVLKQLGETLTELKAHFPGLQSKMRVVLRVEVEAVKFLKEEPQRLDGLLKRCRGVTDTLAQIRRQVDEGMWPPPNNLLNQSPKKVAAETDFSKGLDFEIPPPSPPLNLHELSGPAEGTPLTPKSTNPTKCLDASSKRNTDKAVSVEAAERDWEEKRAALTQYSAKDINRLLEETQAELLKAIPDLDCASKTHPGPAPTPDHKPPKAPHGQKAAPRTEPSGRRGSDELTVPRYRTEKPSKSPPPPPPRRSFPSSHGLTTTRTGEVVVTSKKDSVFIKKAESEELEVQKPQVKLRRAVSEVVRPASTPPIMASAIKDEDDEERIIAELESGGSSVPPMKVVTPGASRLKAAQGPAGSPDKGKHGKQRTEYMRIQAQQQATKPSKEVSGPNETSSPGSEKPSGSRTSIPVLTSFGARNSSISF
In the case of B3, the binding entry in test [2] was “binds”.

B4: SLC2A1 (protein, UniProt P17809 1-492)
chain: MDPSSKKVTGRLMLAVGGAVLGSLQFGYNTGVINAPQKVIEEFYNQTWNHRYGEPIPSTTLTTLWSLSVAIFSVGGMIGSFSVGLFVNRFGRRNSMLMMNLLAFVAAVLMGFSKLGKSFEMLILGRFIIGVYCGLTTGFVPMYVGEVSPTALRGALGTLHQLGIVVGILIAQVFGLDSIMGNADLWPLLLSVIFIPALLQCILLPFCPESPRFLLINRNEENRAKSVLKKLRGTADVTRDLQEMKEEGRQMMREKKVTILELFRSPAYRQPILIAVVLQLSQQLSGINAVFYYSTSIFEKAGVQQPVYATIGSGIVNTAFTVVSLFVVERAGRRTLHLIGLAGMAGCAVLMTIALALLERLPWMSYLSIVAIFGFVAFFEVGPGPIPWFIVAELFSQGPRPAAIAVAGFSNWTSNFIVGMCFQYVEQLCGPYVFIIFTVLLVLFFIFTYFKVPETKGRTFDEIASGFRQGGASQSDKTPEELFHPLGADSQV
B4: in test [1], the binding entry was “binds”.

B5: SFXN3 (protein, UniProt Q91V61 1-321)
chain: MGDLPLNINIQEPRWDQSTFLGRARHFFTVTDPRNLLLSGEQLEASRNIVQNYRAGVATPGLTEDQLWRAKYVYDSAFHPDTGEKVVLIGRMSAQVPMNMTITGCMLTFYRKTPTVVFWQWVNQSFNAIVNYSNRSGDAPITVQQLGTAYVSATTGAVATALGLKSLTKHLPPLVGRFVPFAAVAAANCINIPLMRQRELQVGIPVTDEAGQRLGHSVTAAKQGIFQVVISRIGMAIPAMAIPPVIMNTLEKKDFLKRRPWLGAPLQVGLVGFCLVFATPLCCALFPQRSSIHVTRLEPELRAQIQAQNPSIDVVYYNKGL
For B5, in test [2], the binding result was “binds”.

B6: SLC25A22 (protein, UniProt Q9D6M3 1-323)
chain: MADKQISLPAKLINGGIAGLIGVTCVFPIDLAKTRLQNQQNGQRMYASMSDCLIKTIRSEGYFGMYRGAAVNLTLVTPEKAIKLAANDFFRHQLSKDGQKLTLPKEMLAGCGAGTCQVIVTTPMEMLKIQLQDAGRIAAQRKILAAQAQLSAQGGAQPSVEAPAPPRPTATQLTRDLLRNHGIAGLYKGLGATLLRDVPFSIVYFPLFANLNQLGRPSSEEKSPFYVSFLAGCVAGSAAAVAVNPCDVVKTRLQSLERGVNEDTYSGFLDCARKIWRHEGPSAFLKGAYCRALVIAPLFGIAQVVYFLGIAESLLGLLQEPQA
With B6, in test [2], the binding result is “binds”.

B7: JAGN1 (protein, UniProt Q5XKN4 1-183)
chain: MASRAGPRAAGTDGSDFQHRERVAMHYQMSVTLKYEIKKLIYVHLVIWLLLVAKMSVGHLRLLSHDQVAMPYQWEYPYLLSIVPSVLGLLSFPRNNISYLVLSMISMGLFSIAPLIYGSMEMFPAAQQLYRHGKAYRFLFGFSAVSVMYLVLVLAVQVHAWQLYYSKKLLDSWFTSTQEKKRK
As for B7, the binding result in test [1] is reported as “binds”.

B8: NDUFA8 (protein, UniProt Q9DCJ5 1-172)
chain: MPGIVELPTLEELKVEEVKVSSAVLKAAAHHYGAQCDKTNKEFMLCRWEEKDPRRCLKEGKLVNGCALNFFRQIKSHCAEPFTEYWTCLDYSNMQLFRHCRQQQAKFDQCVLDKLGWVRPDLGQLSKVTKVKTDRPLPENPYHSRARPEPNPVIEGDLKPAKHGTRFFFWTV
Regarding B8, the binding entry in test [2] is reported as “binds”.

B9: PDIA6 (protein, UniProt Q922R8 20-440)
chain: LYSSSDDVIELTPSNFNREVIQSDGLWLVEFYAPWCGHCQRLTPEWKKAATALKDVVKVGAVNADKHQSLGGQYGVQGFPTIKIFGANKNKPEDYQGGRTGEAIVDAALSALRQLVKDRLGGRSGGYSSGKQGRGDSSSKKDVVELTDDTFDKNVLDSEDVWMVEFYAPWCGHCKNLEPEWAAAATEVKEQTKGKVKLAAVDATVNQVLASRYGIKGFPTIKIFQKGESPVDYDGGRTRSDIVSRALDLFSDNAPPPELLEIINEDIAKKTCEEHQLCVVAVLPHILDTGAAGRNSYLEVLLKLADKYKKKMWGWLWTEAGAQYELENALGIGGFGYPAMAAINARKMKFALLKGSFSEQGINEFLRELSFGRGSTAPVGGGSFPTITPREPWDGKDGELPVEDDIDLSDVELDDLEKDEL
For the molecule B9, in test [2], the binding entry is listed as “binds”.

B10: BASP1 (protein, UniProt Q91XV3 1-226)
chain: MGGKLSKKKKGYNVNDEKAKDKDKKAEGAGTEEEGTPKESEPQAAADATEVKESTEEKPKDAADGEAKAEEKEADKAAAAKEEAPKAEPEKSEGAAEEQPEPAPAPEQEAAAPGPAAGGEAPKAGEASAESTGAADGAAPEEGEAKKTEAPAAAGPEAKSDAAPAASDSKPSSAEPAPSSKETPAASEAPSSAAKAPAPAAPAAAEPQAEAPAAAASSEQSVAVKE
Take B10: in test [2], the binding result is listed as “binds”.

Values taken from publication PMC5640428.
